The campaign covered roughly 220,000 compounds. About 2,400 (1.1%) were called active. This list was built around the results that the source calls inconclusive (neither active nor inactive); the mix of calls is not that of the screen. Calls come from the whole dose curve; as a rule, active = well fitted inhibition curve with a large enough effect; inconclusive = small, poorly fitted or top-dose-only effect, or effect the other way; inactive = no such curve, though single readings can be large or run the other way. A potency beside an inconclusive call is a rough fit, not a confirmed value.
Experiment: qHTS Multiplex Assay to Identify Dual Action Probes in a Cell Model of Huntington: Aggregate Formation (GFP); note: nearly all actives have a fitted effect of over 60% in size
Details: PC12 HttQ103-GFP aggregates, Acumen cytometry, 40 h; activity change, negative = inhibition: at 46.1 µM (top of the series) unless noted
Summary of the method: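 Quantitative HTS on tebufenozide-induced (100 nM) PC12 cells stably expressing polyQ103 Huntingtin exon 1–GFP. Reduction of bright GFP aggregates, detected by laser scanning cytometry after lysis, identified actives across the titration.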
% is set by controls: 0 for no effect and ±100 for the full control effect; potency is the fitted concentration of half-maximal effect.

Row | Compound | Potency | activity change, negative = inhibition
1 | CCc1ccc(S(=O)(=O)NCCc2csc(-c3cccnc3)n2)s1 | inconclusive: 35.5 µM [inhibitor, single point] | –
2 | CCN(CC)S(=O)(=O)c1cccc(C(=O)Nc2nc3cc4c(cc3s2)OCCO4)c1 | inconclusive: 35.5 µM [inhibitor, single point] | –
3 | OCCNc1ncnc2c1ncn2Cc1ccccc1 | inconclusive: 0.562 µM [activator, full curve] | –
4 | CC1CCN(C(=O)C2CCN(S(=O)(=O)c3cc(Cl)ccc3Cl)CC2)CC1 | inconclusive: 5.62 µM [activator, single point] | –
5 | CCn1nnnc1SCC(=O)Nc1cccc(C)n1 | inconclusive: 1 µM [inhibitor, full curve, poor fit] | –
6 | COc1ccccc1-n1c(SCC(N)=O)nc2c(c1=O)SCC2 | inactive | –
7 | CC(C)n1c(-c2cccnc2)nc2cnccc21 | inconclusive: 10 µM [inhibitor, partial curve, poor fit] | –
8 | CCCCCCc1cc2cc(S(=O)(=O)c3ccc(C)cc3)c(=O)oc2cc1O | inconclusive: 20 µM [inhibitor, single point] | –
9 | Cc1ccc(C2/C(=C(/O)c3cnn(-c4ccccc4)c3C)C(=O)C(=O)N2CCN2CCOCC2)o1 (centres undefined) | inactive | –
10 | Cc1cccc(C(=O)Nc2sc(-c3ccccc3)cc2C(=O)O)c1 | – | inactive: -2.58% [at 9.22 µM]
11 | CC1CCCN(c2nc3c(c(=O)n(C)c(=O)n3C)n2CCSc2nc3ccccc3s2)C1 (centres undefined) | inconclusive: 0.501 µM [activator, single point] | –
12 | CCCc1nc2c(nnn2Cc2ccccc2Cl)c(=O)[nH]1 | inconclusive: 31.6 µM [activator, partial curve] | –
13 | Cc1oc2cc([N+](=O)[O-])c(O)c([N+](=O)[O-])c2c1C(=O)c1ccc(Br)cc1 | inconclusive: 22.4 µM [inhibitor, single point] | –
14 | COc1ccc(Cc2nc(=S)[nH][nH]2)cc1Br | inactive | –
15 | COC(=O)c1ccc(OCC2c3cc(OC)c(OC)cc3CCN2C(=O)c2ccco2)cc1 (centres undefined) | inconclusive: 11.2 µM [activator, partial curve] | –
16 | CC12CCC(C(=O)N3CCN(C(c4ccccc4)c4ccccc4)CC3)(OC1=O)C2(C)C (centres undefined) | inconclusive: 15.8 µM [inhibitor, single point] | –
17 | COc1ccc(C(=O)Nc2nnc(C(F)(F)F)s2)cc1 | inconclusive: 20 µM [inhibitor, single point] | –
18 | CCC(=O)NNc1nc2c(Cl)cccc2s1 | – | inactive: 13.7% [at 9.22 µM]
19 | O=C1/C(=C/c2ccc(N3CCOCC3)o2)SC(=Nc2ccccc2)N1CCc1c[nH]c2ccccc12 | inconclusive: 15.8 µM [inhibitor, single point] | –
20 | O=C1CC(c2cccc(Cl)c2)c2cc3c(cc2N1)CCC3 (centres undefined) | inactive | –
21 | CCCCCC(=O)Nc1nc(C)c(-c2csc(Nc3ccccc3OC)n2)s1 | inactive | –
22 | CCOC(=O)C1CCCN(C(=O)c2cc(S(=O)(=O)N3CCCCC3)ccc2C)C1 (centres undefined) | – | inactive: 30.1% [at 9.22 µM]

Row | Compound | Potency | activity change, negative = inhibition
23 | COCCn1c(SCc2ccccc2F)nc2ccccc2c1=O | inconclusive: 11.2 µM [inhibitor, single point] | –
24 | CCOC(=O)C1=C(C)NC2=C(C(=O)CCC2)C1c1ccc(O)c(OCC)c1 (centres undefined) | inconclusive: 31.6 µM [activator, single point] | –
25 | COc1ccc(NC(=O)N2c3ccc(OC)cc3C(C)=CC2(C)C)cc1 | inconclusive: 14.1 µM [activator, single point] | –
26 | CCn1c(O)c(/C=N/N=C/c2ccccc2)c2ccc(C3=NNC(=O)CC3)cc21 | inconclusive: 3.55 µM [activator, single point] | –
27 | O=S(=O)(O)c1nc2ccccc2n1Cc1cccc2ccccc12 | – | inactive: -9.06% [at 9.22 µM]
28 | Cc1nn(CC(=O)OCC(=O)Nc2c(C(C)C)cccc2C(C)C)c(C)c1[N+](=O)[O-] | inconclusive: 8.91 µM [activator, partial curve] | –
29 | Cc1cccn2c(=O)c(-c3nnn[nH]3)cnc12 | inactive | –
30 | O=C(O)/C=C/C(=O)NCCc1ccccc1 | inactive | –
31 | COc1cccc(-c2nnc3n2N=C(C(C)(C)C)CS3)c1 | active: 2 µM | –
32 | CCOC(=O)N1CCN(c2nc(-c3ccc(F)cc3)cs2)CC1 | inconclusive: 35.5 µM [inhibitor, single point] | –
33 | Fc1ccc(C(CCCn2nnc(-c3cccnc3)n2)c2ccc(F)cc2)cc1 | active: 12.6 µM | –
34 | Oc1ccc(CNc2ccccc2)c2cccnc12 | inconclusive: 35.5 µM [inhibitor, single point] | –
35 | C/C(Cn1nnc([N+](=O)[O-])n1)=N\NC(=O)c1ccc(Cl)c(Cl)c1 | inconclusive: 12.6 µM [inhibitor, partial curve, poor fit] | –
36 | NNc1nc2ccc(Cl)cc2s1 | inconclusive: 31.6 µM [inhibitor, single point] | –
37 | CN(C)CCNC(=O)/C(=C/c1ccc(-c2cccc([N+](=O)[O-])c2)o1)NC(=O)c1ccccc1 | inactive | –
38 | CCC(O)C1CCN(Cc2cn(-c3ccc(OC)cc3)nc2-c2cccc(F)c2)CC1 (centres undefined) | inconclusive: 1.26 µM [inhibitor, single point] | –
39 | CCOc1ccc2c(c1)[N+](C)(C)C(C)(C)C=C2C | inconclusive: 15.8 µM [inhibitor, single point] | –
40 | CC(=O)N1CCN(CC(=O)Nc2ccc(SC(F)F)cc2)CC1 | inconclusive: 5.62 µM [activator, single point] | –
41 | Cc1ccc(-c2csc3ncnc(Nc4ccc(N5CCOCC5)cc4)c23)cc1 | inconclusive: 35.5 µM [inhibitor, single point] | –
42 | CCOC(=O)c1c(C)[nH]c(C)c1C(=O)CSc1nnc(-c2ccco2)n1Cc1ccccc1 | inconclusive: 5.62 µM [inhibitor, single point] | –
43 | O=C(O)C1C(c2ccccc2)C(C(=O)Oc2ccc(O)cc2)C1c1ccccc1 (centres undefined) | inconclusive: 35.5 µM [activator, single point] | –
44 | CS(=O)(=O)N(CC(=O)N1CCCCC1)c1cccc(F)c1 | – | inactive: 7.17% [at 9.22 µM]

A draw from above in order of formula weight, descending.
Row | Compound | Potency | activity change, negative = inhibition
37 | CN(C)CCNC(=O)/C(=C/c1ccc(-c2cccc([N+](=O)[O-])c2)o1)NC(=O)c1ccccc1 | inactive | –
28 | Cc1nn(CC(=O)OCC(=O)Nc2c(C(C)C)cccc2C(C)C)c(C)c1[N+](=O)[O-] | inconclusive: 8.91 µM [activator, partial curve] | –
41 | Cc1ccc(-c2csc3ncnc(Nc4ccc(N5CCOCC5)cc4)c23)cc1 | inconclusive: 35.5 µM [inhibitor, single point] | –
43 | O=C(O)C1C(c2ccccc2)C(C(=O)Oc2ccc(O)cc2)C1c1ccccc1 (centres undefined) | inconclusive: 35.5 µM [activator, single point] | –
25 | COc1ccc(NC(=O)N2c3ccc(OC)cc3C(C)=CC2(C)C)cc1 | inconclusive: 14.1 µM [activator, single point] | –
40 | CC(=O)N1CCN(CC(=O)Nc2ccc(SC(F)F)cc2)CC1 | inconclusive: 5.62 µM [activator, single point] | –
27 | O=S(=O)(O)c1nc2ccccc2n1Cc1cccc2ccccc12 | – | inactive: -9.06% [at 9.22 µM]
44 | CS(=O)(=O)N(CC(=O)N1CCCCC1)c1cccc(F)c1 | – | inactive: 7.17% [at 9.22 µM]
31 | COc1cccc(-c2nnc3n2N=C(C(C)(C)C)CS3)c1 | active: 2 µM | –
39 | CCOc1ccc2c(c1)[N+](C)(C)C(C)(C)C=C2C | inconclusive: 15.8 µM [inhibitor, single point] | –
30 | O=C(O)/C=C/C(=O)NCCc1ccccc1 | inactive | –
36 | NNc1nc2ccc(Cl)cc2s1 | inconclusive: 31.6 µM [inhibitor, single point] | –
